Source: paper PMC8744257

Amino acid sequences for entries named in this document (tags omitted). Residues count along the entry.
UniProt P38646, residues 47-679: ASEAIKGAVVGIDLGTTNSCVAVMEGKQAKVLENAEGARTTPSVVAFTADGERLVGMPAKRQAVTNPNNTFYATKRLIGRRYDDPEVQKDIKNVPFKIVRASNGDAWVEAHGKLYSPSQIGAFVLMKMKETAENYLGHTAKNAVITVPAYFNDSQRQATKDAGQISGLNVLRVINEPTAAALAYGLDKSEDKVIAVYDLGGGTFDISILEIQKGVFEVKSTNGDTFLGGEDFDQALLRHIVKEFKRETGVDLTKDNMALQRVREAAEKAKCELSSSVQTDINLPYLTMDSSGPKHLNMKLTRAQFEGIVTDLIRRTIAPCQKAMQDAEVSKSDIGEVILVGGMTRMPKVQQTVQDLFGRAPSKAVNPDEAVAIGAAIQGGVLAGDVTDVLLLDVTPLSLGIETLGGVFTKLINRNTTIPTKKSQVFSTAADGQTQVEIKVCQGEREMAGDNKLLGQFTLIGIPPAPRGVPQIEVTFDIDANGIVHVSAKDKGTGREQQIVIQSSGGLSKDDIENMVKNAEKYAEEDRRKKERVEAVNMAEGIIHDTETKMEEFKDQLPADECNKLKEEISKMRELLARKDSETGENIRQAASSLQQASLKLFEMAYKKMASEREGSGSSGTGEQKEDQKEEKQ
UniProt Q96R06: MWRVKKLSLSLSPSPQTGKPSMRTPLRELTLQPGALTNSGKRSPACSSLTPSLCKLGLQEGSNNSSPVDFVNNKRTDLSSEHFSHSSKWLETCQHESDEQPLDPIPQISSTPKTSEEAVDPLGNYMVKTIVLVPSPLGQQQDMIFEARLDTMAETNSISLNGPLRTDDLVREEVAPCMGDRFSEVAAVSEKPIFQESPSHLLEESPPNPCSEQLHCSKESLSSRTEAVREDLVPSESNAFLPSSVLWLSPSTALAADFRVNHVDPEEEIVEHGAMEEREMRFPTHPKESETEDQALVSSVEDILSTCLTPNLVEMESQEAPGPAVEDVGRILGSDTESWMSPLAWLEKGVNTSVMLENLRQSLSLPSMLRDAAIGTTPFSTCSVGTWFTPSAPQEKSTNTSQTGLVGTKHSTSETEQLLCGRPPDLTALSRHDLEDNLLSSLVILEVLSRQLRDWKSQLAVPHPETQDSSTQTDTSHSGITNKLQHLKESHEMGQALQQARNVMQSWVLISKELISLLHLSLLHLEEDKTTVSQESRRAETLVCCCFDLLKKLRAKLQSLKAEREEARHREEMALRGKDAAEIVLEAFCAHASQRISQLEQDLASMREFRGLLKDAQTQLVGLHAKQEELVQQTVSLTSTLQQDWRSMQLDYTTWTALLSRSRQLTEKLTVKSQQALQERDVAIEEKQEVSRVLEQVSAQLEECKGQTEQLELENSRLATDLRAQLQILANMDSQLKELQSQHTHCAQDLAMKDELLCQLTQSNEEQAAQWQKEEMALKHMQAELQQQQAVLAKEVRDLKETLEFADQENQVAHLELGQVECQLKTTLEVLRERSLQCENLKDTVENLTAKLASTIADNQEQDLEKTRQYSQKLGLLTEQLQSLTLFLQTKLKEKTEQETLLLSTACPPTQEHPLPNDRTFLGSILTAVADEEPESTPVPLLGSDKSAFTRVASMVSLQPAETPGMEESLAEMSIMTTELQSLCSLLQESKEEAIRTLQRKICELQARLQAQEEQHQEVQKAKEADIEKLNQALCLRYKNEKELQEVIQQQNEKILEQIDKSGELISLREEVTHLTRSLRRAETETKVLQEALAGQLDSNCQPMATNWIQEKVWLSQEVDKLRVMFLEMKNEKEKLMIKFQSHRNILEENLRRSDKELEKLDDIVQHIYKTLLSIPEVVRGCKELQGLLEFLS

Columns and labels:
[1] = target: T1, BioID2-tagged wildtype human CLUH (BioID2-3xHA-CLUH) (human) (UniProt O75153); test: proximity labelling; BioID in HCT116 CLUH KO cells stably expressing BioID2-3xHA-CLUH, BioID2-3xHA-CLUH∆TPR or BioID2-3xHA-GFP; 24 h, 50 μM biotin; streptavidin pull-down, western blot (Fig. 5B)
T1 sequence: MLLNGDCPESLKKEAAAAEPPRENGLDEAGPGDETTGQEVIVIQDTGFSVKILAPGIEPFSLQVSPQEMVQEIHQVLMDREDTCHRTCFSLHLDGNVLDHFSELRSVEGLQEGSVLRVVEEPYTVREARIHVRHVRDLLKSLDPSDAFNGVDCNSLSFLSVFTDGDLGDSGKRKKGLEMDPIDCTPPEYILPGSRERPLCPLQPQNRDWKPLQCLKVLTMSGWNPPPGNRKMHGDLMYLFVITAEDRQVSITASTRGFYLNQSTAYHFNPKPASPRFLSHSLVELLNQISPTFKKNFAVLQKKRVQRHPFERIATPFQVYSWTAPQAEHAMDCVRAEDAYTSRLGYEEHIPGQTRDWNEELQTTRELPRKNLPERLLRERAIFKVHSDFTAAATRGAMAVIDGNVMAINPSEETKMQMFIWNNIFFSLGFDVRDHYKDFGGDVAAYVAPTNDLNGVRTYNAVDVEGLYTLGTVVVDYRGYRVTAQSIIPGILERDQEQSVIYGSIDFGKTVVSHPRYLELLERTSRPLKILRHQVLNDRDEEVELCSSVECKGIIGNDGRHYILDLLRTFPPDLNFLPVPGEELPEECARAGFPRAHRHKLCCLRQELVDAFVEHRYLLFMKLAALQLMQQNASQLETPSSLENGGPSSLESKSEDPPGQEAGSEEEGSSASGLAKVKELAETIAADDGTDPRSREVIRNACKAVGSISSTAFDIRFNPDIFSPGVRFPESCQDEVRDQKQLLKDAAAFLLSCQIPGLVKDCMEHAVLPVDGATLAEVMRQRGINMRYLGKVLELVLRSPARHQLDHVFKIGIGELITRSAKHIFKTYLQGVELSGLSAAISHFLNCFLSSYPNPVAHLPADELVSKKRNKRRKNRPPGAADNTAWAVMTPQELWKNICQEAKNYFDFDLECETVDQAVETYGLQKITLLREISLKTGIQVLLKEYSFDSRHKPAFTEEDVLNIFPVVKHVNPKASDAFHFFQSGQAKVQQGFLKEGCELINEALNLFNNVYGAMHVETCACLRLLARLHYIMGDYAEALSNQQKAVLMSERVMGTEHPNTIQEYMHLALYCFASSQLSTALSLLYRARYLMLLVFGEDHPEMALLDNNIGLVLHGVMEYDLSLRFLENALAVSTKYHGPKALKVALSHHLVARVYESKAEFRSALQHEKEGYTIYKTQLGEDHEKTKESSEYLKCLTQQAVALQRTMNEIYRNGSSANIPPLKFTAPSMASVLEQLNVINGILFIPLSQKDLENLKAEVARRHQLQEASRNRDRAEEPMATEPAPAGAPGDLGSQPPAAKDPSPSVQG

[2] = target: T2, CLUH lacking TPR domain (BioID2-3xHA-CLUH∆TPR) (human) (UniProt O75153); test: as above
T2 sequence: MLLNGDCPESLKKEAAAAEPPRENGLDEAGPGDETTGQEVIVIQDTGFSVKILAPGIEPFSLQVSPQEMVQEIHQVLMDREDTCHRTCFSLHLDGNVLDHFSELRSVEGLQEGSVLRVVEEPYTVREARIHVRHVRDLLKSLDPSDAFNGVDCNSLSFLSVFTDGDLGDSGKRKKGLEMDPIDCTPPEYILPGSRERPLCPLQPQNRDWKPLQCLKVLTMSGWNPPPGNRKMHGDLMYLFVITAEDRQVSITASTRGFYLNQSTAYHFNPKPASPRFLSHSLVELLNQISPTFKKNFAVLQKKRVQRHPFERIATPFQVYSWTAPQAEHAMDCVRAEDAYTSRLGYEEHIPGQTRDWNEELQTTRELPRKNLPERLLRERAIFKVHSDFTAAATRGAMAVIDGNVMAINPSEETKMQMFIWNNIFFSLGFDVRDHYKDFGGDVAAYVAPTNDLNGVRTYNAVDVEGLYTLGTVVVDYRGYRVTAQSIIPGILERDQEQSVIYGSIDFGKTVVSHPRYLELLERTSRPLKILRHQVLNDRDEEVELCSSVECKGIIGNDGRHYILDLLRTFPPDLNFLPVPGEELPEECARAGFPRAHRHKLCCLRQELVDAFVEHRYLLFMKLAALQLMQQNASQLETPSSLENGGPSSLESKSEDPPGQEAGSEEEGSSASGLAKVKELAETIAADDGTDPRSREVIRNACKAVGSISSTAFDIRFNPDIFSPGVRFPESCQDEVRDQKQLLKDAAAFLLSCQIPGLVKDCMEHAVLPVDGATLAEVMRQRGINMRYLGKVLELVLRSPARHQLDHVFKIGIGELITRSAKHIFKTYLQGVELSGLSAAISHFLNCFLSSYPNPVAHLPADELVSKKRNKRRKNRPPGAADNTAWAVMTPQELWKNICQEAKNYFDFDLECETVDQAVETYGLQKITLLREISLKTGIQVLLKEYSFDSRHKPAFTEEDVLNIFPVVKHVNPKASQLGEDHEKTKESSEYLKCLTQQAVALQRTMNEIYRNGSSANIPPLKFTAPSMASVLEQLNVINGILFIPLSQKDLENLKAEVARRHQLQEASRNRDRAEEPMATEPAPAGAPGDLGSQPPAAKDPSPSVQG

[3] = target: T3, human CLUH fused to TurboID in N-terminal (TurboID-CLUH) (human) (UniProt O75153); test: proximity labelling; TurboID in HCT116 stably expressing TurboID-CLUH; 30 min, 50 μM biotin; streptavidin pull-down, western blot (Fig. 6E); mock-treated cells (SPAG5: with or without puromycin); also after SPAG5 knock-down (Fig. S7G-I)
T3 sequence: T1 sequence

[4] = target: T4, mouse CLUH (mCLUH) protein tagged with a triple HA epitope (3xHA) (mouse) (UniProt Q5SW19); test: affinity purification with mass spectrometry; anti-HA-coupled beads on extracts of HCT116 stably expressing 3xHA-mCLUH; wild-type cells as IP mock; LC-MS/MS, three replicates, spectral counting, FC 2 and 10% FDR
T4 sequence: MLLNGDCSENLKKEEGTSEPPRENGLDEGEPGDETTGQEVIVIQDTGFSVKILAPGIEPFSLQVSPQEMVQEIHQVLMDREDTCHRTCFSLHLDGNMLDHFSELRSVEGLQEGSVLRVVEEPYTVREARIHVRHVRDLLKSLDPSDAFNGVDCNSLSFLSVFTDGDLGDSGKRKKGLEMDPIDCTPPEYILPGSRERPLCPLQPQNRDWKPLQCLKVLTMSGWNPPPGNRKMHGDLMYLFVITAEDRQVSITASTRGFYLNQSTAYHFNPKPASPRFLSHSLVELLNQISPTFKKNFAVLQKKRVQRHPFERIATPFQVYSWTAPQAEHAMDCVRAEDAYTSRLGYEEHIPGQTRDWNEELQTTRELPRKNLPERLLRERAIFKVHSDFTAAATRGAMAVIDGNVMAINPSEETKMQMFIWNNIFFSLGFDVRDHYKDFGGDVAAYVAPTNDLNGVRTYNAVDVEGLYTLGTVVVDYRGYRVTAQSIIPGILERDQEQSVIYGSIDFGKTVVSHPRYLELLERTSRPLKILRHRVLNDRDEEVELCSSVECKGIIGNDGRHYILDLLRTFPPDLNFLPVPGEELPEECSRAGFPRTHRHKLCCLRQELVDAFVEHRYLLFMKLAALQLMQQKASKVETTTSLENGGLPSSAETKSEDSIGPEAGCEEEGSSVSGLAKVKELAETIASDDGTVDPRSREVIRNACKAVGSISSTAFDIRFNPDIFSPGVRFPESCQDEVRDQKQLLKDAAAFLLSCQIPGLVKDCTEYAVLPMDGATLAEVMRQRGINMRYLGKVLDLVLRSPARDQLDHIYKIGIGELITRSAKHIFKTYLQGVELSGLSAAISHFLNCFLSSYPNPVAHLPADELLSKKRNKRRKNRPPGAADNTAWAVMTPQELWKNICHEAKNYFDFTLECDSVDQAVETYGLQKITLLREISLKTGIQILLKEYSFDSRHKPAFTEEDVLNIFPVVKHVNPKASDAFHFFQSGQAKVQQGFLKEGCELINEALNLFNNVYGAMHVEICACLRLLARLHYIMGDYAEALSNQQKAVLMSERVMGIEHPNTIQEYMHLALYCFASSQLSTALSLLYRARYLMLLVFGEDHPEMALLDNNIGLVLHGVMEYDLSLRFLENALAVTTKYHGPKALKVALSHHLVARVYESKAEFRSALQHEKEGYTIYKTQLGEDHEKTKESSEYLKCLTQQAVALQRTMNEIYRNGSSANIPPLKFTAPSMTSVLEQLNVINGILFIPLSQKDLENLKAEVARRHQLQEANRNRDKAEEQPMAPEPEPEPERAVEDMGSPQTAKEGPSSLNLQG

[5] = target: T1, BioID2-tagged wildtype human CLUH (BioID2-3xHA-CLUH) (human); test: proximity labelling; BioID in wild-type HCT116 cells stably expressing BioID2-3xHA-CLUH, BioID2-3xHA-CLUH∆TPR or BioID2-3xHA-GFP; 24 h, 50 μM biotin; streptavidin pull-down, western blot (Fig. 5C)
[6] = target: T5, mouse CLUH (mCLUH) protein fused, in N-terminal, to a modified biotin ligase protein (BioID2-CLUH) (mouse) (UniProt Q5SW19); test: proximity labelling; BioID in HCT116 stably expressing BioID2-mCLUH, control GFP-BioID2; 24 h, 50 μM biotin; streptavidin beads; LC-MS/MS, three replicates
T5 sequence: T4 sequence

[7] = target: T3, human CLUH fused to TurboID in N-terminal (TurboID-CLUH) (human); test: proximity labelling; TurboID in HCT116 stably expressing TurboID-CLUH, control TurboID-GFP; 30 min and 16 h, 50 μM biotin; streptavidin beads; LC-MS/MS

binding [1] | binding [2] | binding [3] | binding [4] | binding [5] | binding [6] | binding [7] | Substance
binds | no binding | – | – | – | – | – | HSPA9 (endogenous, HCT116) (from UniProt P38646 47-679)
– | – | binds | binds | binds | binds | binds | SPAG5 (endogenous, HCT116) (from UniProt Q96R06 1-1193)

No constants are given. Whether binding was seen depends on the method and setting. Binding seen in cells or lysates may run through a third protein. Here binding means that the protein was enriched with, or labelled near, the bait; the list need not be complete. For some of these results: A no says only that the protein was not detected with the bait. For some of these results: Where a sequence is shown, tags or fusion partners need not be part of it.
